Laboratory results: patent US20100016241A1
These are yes or no findings as the source states them, for the method shown. Binding seen in cells or lysates may run through a third protein. Some entries that bind do so weakly or less than the wild type.

The chains behind the UniProt entries cited, without tags or fusion partners. Where a name states a change or a piece, a line headed by the entry shows the natural chain unless it says otherwise.
UniProt P14210: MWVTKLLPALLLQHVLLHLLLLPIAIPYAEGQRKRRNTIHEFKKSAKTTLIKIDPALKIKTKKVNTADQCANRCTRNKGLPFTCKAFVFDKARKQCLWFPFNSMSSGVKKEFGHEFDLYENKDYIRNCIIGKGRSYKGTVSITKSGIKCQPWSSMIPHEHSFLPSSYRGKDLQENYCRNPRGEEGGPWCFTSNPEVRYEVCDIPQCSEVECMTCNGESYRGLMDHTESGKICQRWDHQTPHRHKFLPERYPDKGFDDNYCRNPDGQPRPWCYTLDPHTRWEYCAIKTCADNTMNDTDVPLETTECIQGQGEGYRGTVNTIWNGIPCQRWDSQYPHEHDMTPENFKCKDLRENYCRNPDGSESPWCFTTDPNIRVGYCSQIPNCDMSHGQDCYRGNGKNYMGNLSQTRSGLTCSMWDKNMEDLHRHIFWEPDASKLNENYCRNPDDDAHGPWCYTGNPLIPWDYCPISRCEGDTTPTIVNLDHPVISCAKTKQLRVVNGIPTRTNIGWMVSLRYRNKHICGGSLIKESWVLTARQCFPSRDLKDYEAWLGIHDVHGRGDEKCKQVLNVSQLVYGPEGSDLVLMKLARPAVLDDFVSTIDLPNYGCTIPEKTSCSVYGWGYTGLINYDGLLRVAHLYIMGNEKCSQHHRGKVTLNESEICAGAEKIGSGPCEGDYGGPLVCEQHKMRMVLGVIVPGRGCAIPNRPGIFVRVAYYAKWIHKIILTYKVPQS

Columns and labels:
[1] = biological target: recombinant EC-Met protein (UniProt P08581); assay: coimmunoprecipitation with recombinant proteins
[2] = biological target: recombinant Sema (rSema) protein, Sema and PSI domains of the Met receptor with 8× His tag (UniProt P08581); assay: coimmunoprecipitation with recombinant proteins

## Recombinant HGF (hepatocyte growth factor) (from UniProt P14210 32-494; P14210 495-728) (ligand)
[1]
  binding: binds
[2]
  binding: binds
